# Reference: PubChem BioAssay AID651640 (Broad Institute, 2012)
# Screen size: about 350,000 compounds; about 6,000 (1.7%) were called active. The shares of active, inactive and inconclusive entries below differ from those in the screen. Rule as the data show it: active = CPE inhibition above about 20% (passing the limit was not always enough); inconclusive = no clear call, values can overlap the other calls; tested in BHK-21 cells. Some structures have more than one record in an assay (separate samples or runs), and their calls can disagree.
# Test: protection of cells from dengue 2 killing – plate reader, single concentration, primary screen (AID 651640);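 also: 0% = median of neutral control wells and 100% = median of positive control wells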
# Conditions: DENV2-infected cells, cytopathic effect rescue, at 9.99 µM, hits give high values
row,SMILES,CPE inhibition
1,Cc1ccc(S(=O)(=O)Nc2ccc3c(c2)C(=O)N([C@H](C)CO)C[C@@H](C)[C@H](CN(C)S(=O)(=O)c2ccc(Cl)cc2)O3)cc1,active: 43%
2,O=C(NNC(=O)c1ccco1)c1cccc(Br)c1,inconclusive: 29.1%
3,COc1ccc(NC(=O)N[C@H]2C=C[C@@H](CC(=O)NCc3ccccn3)O[C@@H]2CO)cc1,inconclusive: 21.6%
4,COc1ccc(C(=O)N/C(=C/c2cccc3ccccc23)C(=O)NCCc2c[nH]c3ccccc23)cc1OC,inactive: -15.7%
5,C[C@@H]1CCCCO[C@@H](CN(C)C(=O)CCCN(C)C)[C@@H](C)CN([C@H](C)CO)C(=O)c2cc(NC(=O)c3ccccc3)ccc2O1,inconclusive: 20.8%
6,CCc1cc(=O)oc2c(CNCc3c(F)cccc3Cl)c(O)ccc12,inconclusive: 24.6%
7,Cc1ccc(N2CC(C(=O)Nc3cc(C(F)(F)F)ccc3N3CCCC3)CC2=O)cc1 (stereo not given),inconclusive: 61.5%
8,O=C(C[C@H]1C=C[C@H](NC(=O)C2CCOCC2)[C@H](CO)O1)NCc1ccccc1Cl,inconclusive: 28.7%
9,CC1CCCCN1S(=O)(=O)c1ccc(C(=O)N(CCCN(C)C)c2nc3ccc(Br)cc3s2)cc1 (stereo not given),inconclusive: 27.3%
10,CCC(CC)c1ncc[nH]1,inactive: -2.56%
11,COCC(=O)N1CCCCN2[C@H](C1)[C@@H](c1ccc(C#Cc3ccccc3)cc1)[C@@H]2CO,active: 27.9%
12,O=C1O[C@@H]([C@H](O)CO)C(O)=C1O,inconclusive: 45.8%
13,CNC(=S)N(CCc1c(C)[nH]c2ccc(C)cc12)Cc1cccnc1,inconclusive: 21.6%
14,CC(C)(C)[C@H]1C=C(C(=O)NCc2ccccc2)O[C@@H](OCc2ccc(CO)cc2)C1,active: 51.1%
15,C[C@H](CO)N1C[C@H](C)[C@@H](CN(C)CC2CC2)OCCCC[C@H](C)Oc2ccc(NC(=O)Cc3ccccc3)cc2C1=O,active: 57.8%
16,COc1ccc(S(=O)(=O)N(CC(=O)NC2CCCC2)c2ccccc2OC)cc1,inconclusive: 27.1%
17,CCCCC(O)(CCCC)C(=O)N/N=C(\C)c1ccc(Cl)cc1,inconclusive: 66.1%
18,COc1ccc(CN(C)C(C)C(=O)Nc2ccc(S(=O)(=O)N3CCCCC3)cc2)cc1F (stereo not given),inconclusive: 23.1%
19,O=C(C[C@H]1C[C@H]2c3cc(NC(=O)Cc4ccncc4)ccc3O[C@H]2[C@@H](CO)O1)NCc1ccncc1,inactive: -1.72%
20,CO[C@@H]1CN(C)C(=O)c2ccc(NC(=O)Nc3ccc(Cl)cc3)cc2OC[C@H](C)N(C(=O)Nc2c(C)noc2C)C[C@H]1C,inconclusive: 39.3%
21,CCC(Oc1ccc(C)cc1)C(=O)Nc1ccc2c(c1)n(C)c(=O)n2C (stereo not given),inactive: 0.512%
22,CCc1nnc(NS(=O)(=O)c2ccc(NC(=O)c3ccccc3C)cc2)s1,inconclusive: 26.4%
23,COC(=O)c1ccccc1Oc1cnc2ccccc2n1,inconclusive: 33.8%
24,COC(=O)c1ccc2c(=O)[nH]c(COC(=O)c3c(-c4ccccc4)noc3C)nc2c1,inconclusive: 38.8%
25,COc1ccccc1C(=O)c1nc2ccccc2n1C,inconclusive: 26.3%

row,SMILES,CPE inhibition
1,COC(=O)[C@@]1(Cc2ccccc2CN=[N+]=[N-])COC(c2ccc(OCCCO)cc2)=N1,active: 26.7%
2,CC(=O)N1[C@H](CO)[C@H](c2ccccc2)[C@H]1CNC(=O)c1ccncc1,active: 20.5%
3,COc1ccc(S(=O)(=O)N(C)C[C@H]2OCCCC[C@H](C)Oc3ccc(NS(=O)(=O)c4ccc(C)cc4)cc3C(=O)N([C@@H](C)CO)C[C@@H]2C)cc1,inactive: 10.2%
4,CCCc1cc(=O)n2nc(N3CCC(C(=O)N4CCN(c5cccc(OC)c5)CC4)CC3)sc2n1,inconclusive: 20.9%
5,Nc1ccn([C@@H]2O[C@H](CNCc3cccc(OC4CCCC4)c3)[C@@H](O)[C@H]2O)c(=O)n1,inconclusive: 21.7%
6,CCN(CC)C(=O)c1cccc(C)c1,inconclusive: 39%
7,COCC(=O)N1CC(=O)N2[C@H](C1)[C@H](c1ccc(-c3cccnc3)cc1)[C@@H]2CO,inconclusive: 22.6%
8,Cc1ccc(NS(=O)(=O)N2CCOCC2)c(C)c1,inconclusive: 20.2%
9,COCC(=O)N1[C@H](CNC(=O)c2ccccn2)[C@@H](c2ccccc2)[C@@H]1CO,inconclusive: 31.3%
10,CC(C)(C)c1ccc(OCCC(=O)OCC(=O)Nc2ccc(N3CCOCC3)cc2)cc1,inconclusive: 72.7%
11,c1ccc(CN2CCCC3(CCCN(Cc4nc(CC5CC5)no4)C3)C2)cc1 (stereo not given),inconclusive: 37.9%
12,COc1cccc(C(=O)Nc2ccc3c(c2)C(=O)N(C)[C@@H]2CC[C@@H](CC(=O)NCCCN4CCOCC4)O[C@H]2CO3)c1,inactive: 1.22%
13,CC(C)NC(=O)N(C)C[C@@H]1OCCCC[C@H](C)Oc2ccc(NC(=O)Nc3cccc4ccccc34)cc2C(=O)N([C@H](C)CO)C[C@@H]1C,inactive: -9.78%
14,CCOC(=O)C1=CCN(S(=O)(=O)c2cccc(Cl)c2)C1c1ccccc1 (stereo not given),inconclusive: 26.8%
15,CC(C)(C)CNC(=O)c1cccc2c1C(=O)c1ccc(N3CCCC3)cc1S2(=O)=O,active: 29.1%
16,Cc1nnc(NC(=O)CSc2nnc(CC(=O)Nc3ccccc3Cl)n2C)s1,inactive: 5.31%
17,CC(Oc1ccc(S(=O)(=O)N2CCCC2)cc1[N+](=O)[O-])C(=O)NC1(C#N)CCCCC1 (stereo not given),inconclusive: 31%
18,Cc1cccc(NC(=O)CNC(=O)COC(=O)C2CC2C)c1C (stereo not given),inconclusive: 29.3%
19,Cc1cc(NC(=O)CCc2ccc(-c3ccccc3)o2)no1,inconclusive: 51.2%
20,C[C@@H]1COC(=O)[C@@H](CC(=O)OC(C)(C)C)C/C=C\C[C@H](CC(=O)N(CCO)Cc2ccccc2)C(=O)N1,inconclusive: 51%
21,CCCC1NC(=O)c2cc3ccccc3cc2-n2c1nc1cc(Cl)ccc1c2=O (stereo not given),inconclusive: 46.9%
22,COc1ccc(NC(=O)N(C)C[C@H]2OCCCC[C@@H](C)Oc3ccc(N(C)C)cc3C(=O)N([C@H](C)CO)C[C@H]2C)cc1,inactive: 8.19%
23,CSC1=N/C(=C\c2ccccc2C)C(=O)S1,inconclusive: 31.3%
24,C[C@@H]1CCCCO[C@@H](CN(C)CC2CCCCC2)[C@@H](C)CN([C@@H](C)CO)C(=O)c2cc(NC(=O)Nc3ccccc3)ccc2O1,inactive: -10%
25,CC(C)(C)c1ccc(-c2noc(-c3ccno3)n2)cc1,inconclusive: 23.2%

# In the list so far, these contain fluorine.
row,SMILES,CPE inhibition
6,CCc1cc(=O)oc2c(CNCc3c(F)cccc3Cl)c(O)ccc12,inconclusive: 24.6%
7,Cc1ccc(N2CC(C(=O)Nc3cc(C(F)(F)F)ccc3N3CCCC3)CC2=O)cc1 (stereo not given),inconclusive: 61.5%
18,COc1ccc(CN(C)C(C)C(=O)Nc2ccc(S(=O)(=O)N3CCCCC3)cc2)cc1F (stereo not given),inconclusive: 23.1%

# Next structures follow.

row,SMILES,CPE inhibition
1,CCOC(=O)c1c(NC(=O)C2c3ccccc3Oc3ccccc32)sc(C(C)=O)c1C,inactive: -1.58%
2,CC(C)C#Cc1ccc([C@H]2[C@H](CO)N3C(=O)CN(C(=O)NC4CCCCC4)C[C@@H]23)cc1,inconclusive: 21.8%
3,COc1cc(CNc2ccc3[nH]c(=O)[nH]c3c2)ccc1OCc1c(F)cccc1Cl,inactive: -2.27%
4,COc1ccc(NC(=O)c2ccc(S(=O)(=O)N3CC(C)OC(C)C3)cc2)cc1 (stereo not given),inconclusive: 56.3%
5,COc1ccc(CN(C)C[C@@H]2Oc3c(NC(=O)c4cc(C)nn4C)cccc3C(=O)N([C@H](C)CO)C[C@H]2C)cc1,active: 26.7%
6,Cc1ccc(OCC(=O)OC(C)CN2CCCCC2)cc1 (stereo not given),inconclusive: 30.9%
7,COCCNC(=O)C1C(=O)Nc2ccccc2C(=O)N1C1CCCC1 (stereo not given),inconclusive: 66.7%
8,CCc1ccc(OCCOC(=O)Nc2ccccc2)cc1,inconclusive: 25.6%
9,O=C(Nc1cc(F)ccc1F)N1CC(=O)N2[C@H](CO)[C@@H](c3ccc(-c4ccccc4)cc3)[C@@H]2C1,inactive: -13.7%
10,Cc1cc(C)c(C)c(S(=O)(=O)N2CCSCC2)c1C,inconclusive: 25.2%
11,CCCCC(=O)OCc1nc2ccccc2s1,inconclusive: 32.6%
12,CC=Cc1ccc2n(c1=O)C[C@H]1[C@H](CO)[C@@H](C(=O)N3CCCCC3)N(Cc3ccccc3OC)[C@@H]21 (mixture of isomers),inactive: 0.885%
13,Cc1nn(C)c(C(=O)NC(=S)Nc2ccc([N+](=O)[O-])cc2)c1Cl,inconclusive: 26.2%
14,C[C@@H]1CN([C@@H](C)CO)C(=O)Cc2cc(NC(=O)Nc3ccc(C(F)(F)F)cc3)ccc2O[C@H]1CN(C)S(=O)(=O)c1cccs1,active: 35.4%
15,CC(=O)Nc1ccc(NC(=O)CSc2nnc(-c3cccs3)n2C)cc1,inconclusive: 35.8%
16,C/C=C/c1ccc2c(c1)O[C@@H](CN(C)C(=O)NC1CCCC1)[C@@H](C)CN([C@@H](C)CO)S2(=O)=O,inactive: 8.68%
17,CCCCC(CC)CNC(=O)c1cc2ccccc2c(=O)o1 (stereo not given),inconclusive: 61.3%
18,C[C@H]1CCCCO[C@@H](CN(C)C)[C@@H](C)CN([C@@H](C)CO)C(=O)c2cc(NC(=O)CCC(F)(F)F)ccc2O1,inactive: 0.593%
19,Brc1ccc2nc(-c3ccccc3)c(Cc3ccccc3)n2c1,inconclusive: 41.5%
20,COc1cc(OC)cc(C(=O)OCC(=O)Nc2cccc(C(C)=O)c2)c1,inconclusive: 21.4%
21,C[C@@H]1CN([C@H](C)CO)C(=O)c2cc(NC(=O)Nc3ccc(F)cc3)ccc2O[C@H]1CN(C)Cc1ccccc1,inactive: -2.75%
22,COc1ccc(/C=C/c2nnc(NC(=O)C(C)(C)C)s2)cc1,active: 70.1%
23,O=C(Nc1cccnc1)c1ccccc1Cl,inconclusive: 36.8%
24,c1ccc(Cc2c(C3CCCCC3)nc3c4ccccc4ccn23)cc1,inconclusive: 33.3%
25,O=C(c1ccc(F)cc1)N1CCCCN2[C@H](CO)[C@@H](c3ccc(-c4ccc(F)cc4)cc3)[C@@H]2C1,inactive: 4.44%
